Results deposited as PubChem BioAssay AID1224826 (NIAID, 2016)

Screen: 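Knock-downs that raise or lower Tnf reporter signal after endotoxin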 (primary screen)
System: RAW264.7 G9 macrophages from mouse bearing reporters for p65 (GFP) and the Tnf promoter (mCherry)
Knock-down reagent: siRNA pool against mouse genes, 100 nM
Timing: 16 h of LPS stimulation, after 2 days of siRNA transfection
Challenge: bacterial lipopolysaccharide (Salmonella minnesota R595), 10 ng/ml
Detection: 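Imaged Tnf reporter mCherry in nuclei, minus background, normalised per plate to the median and expressed as robust z-scores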
Scale: Tnf reporter robust z-score: higher = stronger Tnf promoter reporter signal after LPS; Tnf reporter intensity: higher = stronger Tnf promoter reporter signal
Active means: 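a well counts as active at a score of -1.3 or below (Tlr4 knock-down control median) or above 3 (raised signal); controls and wells holding fewer than 50 cells are excluded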
Meaning of the calls: active = Tnf reporter clearly lowered or raised; inactive = no clear change in Tnf reporter
The deposit covers about 17,000 reagents; below is a part drawn at random. About 1,110 of them (6.6%) count as active. 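Active means lowered or raised reporter signal; replicate intensities are raw and not normalised per plate.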 Reagent sequences are not shown.

| gene symbol | PubChem SID | Tnf reporter robust z-score | fewer than 50 cells in well | Tnf reporter intensity, replicate 1 | Tnf reporter intensity, replicate 2 | Call |
| --- | --- | --- | --- | --- | --- | --- |
| Was | SID315470021 | -0.8 | enough cells in well | 196 | 162 | inactive |
| Cnot6l | SID315478893 | 0.96 | enough cells in well | 209 | 209 | inactive |
| BC016579 | SID315477773 | -1.42 | enough cells in well | 83.8 | 135 | active |
| Trim27 | SID315468957 | 1.05 | enough cells in well | 236 | 188 | inactive |
| Naglu | SID315470625 | 0.62 | enough cells in well | 299 | 265 | inactive |
| Mmp13 | SID315467943 | -0.38 | enough cells in well | 212 | 194 | inactive |
| Or2t26 | SID315480508 | 0.08 | enough cells in well | 188 | 123 | inactive |
| Pde6b | SID315468441 | -0.86 | enough cells in well | 167 | 133 | inactive |
| Gorasp2 | SID315473995 | 0.29 | enough cells in well | 270 | 179 | inactive |
| Rac1 | SID315468867 | 0.84 | enough cells in well | 224 | 232 | inactive |
| Celf3 | SID315475618 | 0.78 | enough cells in well | 157 | 110 | inactive |
| Slamf7 | SID315475107 | 1.45 | enough cells in well | 163 | 138 | inactive |
| Nectin1 | SID315471890 | 0.2 | enough cells in well | 357 | 201 | inactive |
| Morf4l1 | SID315469669 | 0.32 | enough cells in well | 250 | 118 | inactive |
| Ins1 | SID315467484 | 0.38 | enough cells in well | 225 | 120 | inactive |
| Mep1a | SID315467903 | 0.66 | enough cells in well | 303 | 266 | inactive |
| Lrrc75a | SID315477428 | 0.39 | enough cells in well | 142 | 160 | inactive |
| Adprs | SID315476215 | -0.9 | enough cells in well | 90.6 | 119 | inactive |
| Rpl15 | SID315472467 | -0.91 | enough cells in well | 96.4 | 81.2 | inactive |
| Rbak | SID315471824 | -0.15 | enough cells in well | 294 | 194 | inactive |
| Mcts1 | SID315473693 | 0.57 | enough cells in well | 279 | 273 | inactive |
| Tlcd1 | SID315473520 | -0.08 | enough cells in well | 305 | 61 | inactive |
| Vxn | SID315475426 | 2.59 | enough cells in well | 360 | 112 | inactive |
| Klhdc8a | SID315477800 | 2.42 | enough cells in well | 286 | 306 | inactive |
| Gja3 | SID315466905 | 0.16 | enough cells in well | 286 | 235 | inactive |
| Fn1 | SID315466730 | 0.73 | enough cells in well | 351 | 264 | inactive |
| Zfp704 | SID315477221 | -0.93 | enough cells in well | 162 | 98.9 | inactive |
| Cpq | SID315471214 | -1.68 | enough cells in well | 70.8 | 50.9 | active |
| Gfap | SID315466881 | -0.5 | enough cells in well | 259 | 155 | inactive |
| Aebp1 | SID315465337 | -0.32 | enough cells in well | 116 | 233 | inactive |
| Gdf11 | SID315466870 | -0.23 | enough cells in well | 216 | 236 | inactive |
| Dcaf12l2 | SID315479813 | 3.81 | enough cells in well | 466 | 268 | active |
| Crispld2 | SID315475640 | 3.5 | enough cells in well | 279 | 161 | active |
| Wasl | SID315474688 | 0.09 | enough cells in well | 308 | 203 | inactive |
| Ice2 | SID315475930 | -0.03 | enough cells in well | 274 | 192 | inactive |
| Zfp846 | SID315479780 | – | fewer than 50 cells per well; well left out of calls | 119 | 34 | inactive |
| Myc | SID315468048 | 0.72 | enough cells in well | 357 | 231 | inactive |
| Jrk | SID315467550 | -0.07 | enough cells in well | 195 | 157 | inactive |
| Sox17 | SID315469385 | 3.33 | enough cells in well | 239 | 187 | active |
| Gkap1 | SID315471428 | -0.28 | enough cells in well | 221 | 223 | inactive |
| Trim17 | SID315471622 | -0.2 | enough cells in well | 102 | 93.5 | inactive |
| Abca5 | SID315478099 | 0.72 | enough cells in well | 284 | 206 | inactive |
| Cmas | SID315466008 | -1.04 | enough cells in well | 101 | 140 | inactive |
| Or6c5 | SID315479940 | – | fewer than 50 cells per well; well left out of calls | 62.9 | 57.6 | inactive |
| Nhlrc3 | SID315477720 | -0.1 | enough cells in well | 165 | 191 | inactive |
| Bpnt2 | SID315479605 | -0.39 | enough cells in well | 122 | 154 | inactive |
| Panx3 | SID315477513 | -1.07 | enough cells in well | 163 | 81.6 | inactive |
| Cetn1 | SID315470355 | -0.46 | enough cells in well | 206 | 178 | inactive |
| Ppp2r3a | SID315479268 | 0.08 | enough cells in well | 178 | 145 | inactive |
| Rnf14 | SID315471660 | -0.74 | enough cells in well | 240 | 148 | inactive |
| Tph2 | SID315477993 | – | fewer than 50 cells per well; well left out of calls | 62.4 | 73.2 | inactive |
| Zar1 | SID315481032 | -1.13 | enough cells in well | 77.2 | 73.6 | inactive |
| Stoml3 | SID315478694 | 2.74 | enough cells in well | 229 | 157 | inactive |
| Liph | SID315479461 | -1.26 | enough cells in well | 108 | 85.5 | inactive |
| Ephb1 | SID315480928 | – | fewer than 50 cells per well; well left out of calls | 165 | 130 | inactive |
| Creg2 | SID315480740 | 0.85 | enough cells in well | 306 | 155 | inactive |
| Il11ra2 | SID315467427 | -0.3 | enough cells in well | 227 | 158 | inactive |
| 2900026A02Rik | SID315479667 | – | fewer than 50 cells per well; well left out of calls | 144 | 79.4 | inactive |

Sorted by “Tnf reporter intensity, replicate 1” (highest first): 5 of the entries above.
| gene symbol | PubChem SID | Tnf reporter robust z-score | fewer than 50 cells in well | Tnf reporter intensity, replicate 1 | Tnf reporter intensity, replicate 2 | Call |
| --- | --- | --- | --- | --- | --- | --- |
| Stoml3 | SID315478694 | 2.74 | enough cells in well | 229 | 157 | inactive |
| Ephb1 | SID315480928 | – | fewer than 50 cells per well; well left out of calls | 165 | 130 | inactive |
| Liph | SID315479461 | -1.26 | enough cells in well | 108 | 85.5 | inactive |
| Zar1 | SID315481032 | -1.13 | enough cells in well | 77.2 | 73.6 | inactive |
| Tph2 | SID315477993 | – | fewer than 50 cells per well; well left out of calls | 62.4 | 73.2 | inactive |
